From patent publication US4118483 (dated 1978)

Assay: general procedure: solution-phase peptide synthesis; DCC/1-hydroxybenzotriazole; active esters (OTcp, OObt); azide fragment coupling
Settings: late stage modification step, acetate

H-D-Gln(Bzl)-Leu-Arg-Pro-NH-C2H5
difficulty met: The very impure material is purified by partition chromatography
